Reference: paper PMC10163288
Some of the results follow.

B1: il10ra_site1_normal_mot_HHH_b2_01235_000000294_0001_1_18_H_._HHH_b2_06400_0001_0000100007_0000001_0 (protein)
chain: SSSSTEESEELYRLLREASELDQEGNPEEARRVLEEAEELAEKLGNLVLLATIEFLLEFISSSSS
B2: il10ra_site1_normal_mot_HHH_b1_06912_af2_000000235_0001_1_15_H_._HHH_b2_01017_af2_0001_0000100001_0000002_0_af2pred_0001 (protein)
chain: SSSSSSSKELEEIVKLIREALEIDDEEEAEQVLRRAEELAEENNNKLALLIIEFALRQLSSSSSS
B3: il10ra_site1_sap_12_mot_HHH_b2_02463_af2_000000222_0001_1_19_H_._HHH_b2_02639_af2_0001_0000400014_0000002_0_0001 (protein)
chain: SSSSDSLEKSIRILLEAAERMLEAGDPEYAERALHFALWDAERANDPIAEEIEELLERIGSSSSS
B4: il10ra_site1_normal_mot_HHH_b2_02337_000000026_0001_38_52_H_._96901828190b971c916e7b6b8058f7b9_0001_1_0001_0000200010_0000001_0 (protein)
chain: PIQEVIQRLVRLAFREGDPELLKALWKLVKLFEEGDPEAEELLEEVAELLKKDEEEAKRLLKELG
B5: il10ra_site1_normal_mot_8756ee2cf497b5429c717dfc0c0bcfd6_0001_000000186_0001_1_13_H_._HHH_b1_06578_af2_0001_0000300032_0000001_1_af2pred_0001 (protein)
chain: SSSSSIAEEVFRLLREAAELYHEGDKEKAEEILKEAEELAEEANDEIAKVIIEFLKRAIENSSSS
B6: il10ra_site1_sap_18_mot_HHH_b1_00682_000000235_0001_1_20_H_._HHH_b2_01115_0001_0000400025_0000001_0_0001_af2pred_dldesign_0_af2pred (protein)
chain: SSSDPDRLFEAAKHAIRVLLEEGRPEEAEATLDYYAALFEAMGKPEYAEELKKYYEKLKKEISSS
B7: il10ra_site1_sap_12_mot_HHH_b1_00456_000000263_0001_1_17_H_._HHH_b2_05065_0001_0000200009_0000001_0_0001_af2pred_0001 (protein)
chain: SSSSSSSELERLLEEIEEALERGDPQEALKLSREAARLAAELNDHEVLRILAELLKEIFSSSSSS
B8: il10ra_site1_sap_14_mot_HHH_b1_02492_000000051_0001_1_21_H_._HHH_b2_03656_0001_0000600043_0000002_0_0001_af2pred_dldesign_0_af2pred (protein)
chain: SSSSSPLEKAKAYYTEVLELAKEKNNLDALKSSLRALLHVAKLMGDEELAAELEAELKELESSSS
B9: il10ra_site1_normal_mot_HHH_b1_06256_000000091_0001_42_58_H_._HHH_b2_07403_0001_0000100014_0000001_0 (protein)
chain: SSSDTEQRVAELLFRAVRLLFEGNPEEAEKLVEEAERLAEELNDPELERYVEILLHFVKAHSSSS
B10: il10ra_site1_normal_mot_HHH_b1_06125_000000022_0001_1_19_H_._HHH_b1_05627_0001_0000300026_0000001_0 (protein)
chain: SSSSSEEREEALELIRQIARLLLRGNPEEARRLLEELRELVEEIGDPALEKAVRILEEAASSSSS
B11: il10ra_site1_sap_17_mot_HHH_b2_02463_af2_000000222_0001_1_19_H_._HHH_b1_05005_0001_0000200009_0000001_0_0001 (protein)
chain: SSSSSDRQEILELLKKAVRAALHGNPEEARELLEEAKELAEELNDERALKMIEDLLRALNSSSSS
B12: il10ra_site1_normal_mot_HHH_b1_06798_000000292_0001_1_19_H_._HHH_b1_01886_0001_0000100008_0000001_0 (protein)
chain: SSSSTLEFSVKFALRVAEQLREAGDPERVRILLEKLLEHLKEAKDPELYEEVEELLERLEKSSSS
B13: il10ra_site1_sap_24_mot_HHH_b2_00952_af2_000000228_0001_1_18_H_._HHH_b2_02316_0001_0000200021_0000001_0_0001_af2pred_0001 (protein)
chain: SSSSSDELRIRALLFLARAAERTGNPKAAKILLEWAEKLARELGDEELLEEIEELLEKLEKSSSS
B14: il10ra_site1_normal_mot_HHH_b2_00984_000000042_0001_1_20_H_._HHH_b1_02159_0001_0000100001_0000001_0 (protein)
chain: SSSSSDEEVEERVEELLEEAKQIDDPRERARLLLEATRLALQLSDAELLKEVWEVIKKLASSSSS
B15: il10ra_site1_sap_28_mot_9c3e5e2d2b9ffb70dc788f52fbfab6d5_0001_1_000000198_0001_1_14_H_._HHH_b1_02400_0001_0000300013_0000001_0_0001 (protein)
chain: SSSSSEEVEELLEEAEEALKNGDPEKARELILEALQIAFRLKDPELLQKVWKVLKEIAEKASSSS
B16: il10ra_site1_sap_16_mot_HHH_b2_03328_af2_000000127_0001_1_19_H_._HHH_b1_02175_0001_0000100001_0000002_0_0001 (protein)
chain: SSSSSEEERYLELSLRFLRWLLEVGDEEAAERMARILLELAEDLNDEEVRREVEEILKELSSSSS
B17: il10ra_site1_normal_mot_HHH_b1_01821_000000158_0001_23_39_H_._ems_p1-15H-GBL-16H-GABBL-16H_0222_0001_0001_0002_af2_0001_0000700013_0000001_0 (protein)
chain: SSSSSDFVRAILEAVRLALEAGDEEALQRLWEIFKKAINGKMSEEEAEERAEEIAKELESSSSSS
B18: il10ra_site1_sap_16_mot_HHH_b1_06789_af2_000000041_0001_1_20_H_._HHH_b1_04240_af2_0001_0000500015_0000001_0_0001 (protein)
chain: SSSSSDEEYEEEVERLLEEAEKIPDPREAAEVLLKALRVALRGNDPELLHLVWEVLEEISSSSSS
B19: il10ra_site1_normal_mot_HHH_b1_05357_000000034_0001_23_39_H_._HHH_b2_02453_0001_0000100002_0000002_0_af2pred_dldesign_0_af2pred (protein)
chain: SSSSDVEARLQELLDEARKEKDRLKRSHILLQAHSLANAQKDPALVARVEEESLRIVQESSSSSS
B20: il10ra_site1_sap_14_mot_HHH_b1_03559_000000151_0001_22_39_H_._ems_p1-15H-GBL-16H-GBL-16H_0017_0001_0001_0002_af2_0001_0000300022_0000001_1_0001 (protein)
chain: SSSSDTEVREQVIKLAREIFRLLLRGNPEEAEEVLKELEEVAEKYNDPAAREMVKILRQAVSSSS
B21: il10ra_site1_normal_mot_8756ee2cf497b5429c717dfc0c0bcfd6_0001_000000186_0001_1_13_H_._HHH_b2_06621_af2_0001_0000100003_0000002_0 (protein)
chain: SSSSTESERVAELIREAARAENDGNPEEAEELLEEAKELAEEANNDVLRFQIEYLERLLKESSSS
B22: il10ra_site1_normal_mot_HHH_b1_04940_000000219_0001_1_18_H_._HHH_b1_07612_0001_0000200015_0000001_0 (protein)
chain: SSSSEYVELSLRFARWLYEEGDERALRRVFEAIETILENDGDPEIEEILEEVEELIRKLEGSSSS
B23: il10ra_site1_sap_17_mot_HHH_b2_07145_000000158_0001_24_40_H_._HHH_b1_07351_0001_0000100015_0000002_0_0001 (protein)
chain: SSSSSEEVWELIKELLELLAEGDKEEAERVIQEIEELAEERGNQLLRFLVELLKREVEKSSSSSS
B24: il10ra_site1_normal_mot_HHH_b2_00800_af2_000000047_0001_1_20_H_._HHH_b1_05749_0001_0000400036_0000001_0 (protein)
chain: SSSSQEEYEFVREVIKEARELFEEGDPEKARELLEEAEKEAEELGNPLVKFSLEALLKALRSSSS

Molecular target: il10ra, Q13651
Experiment: yeast display titration

Apparent Kd, inactive:
B1 no binding seen
B2 no binding seen
B3 no binding seen
B4 no binding seen
B5 no binding seen
B6 > 670 nM
B7 no binding seen
B8 no binding seen
B9 no binding seen
B10 no binding seen
B11 no binding seen
B12 no binding seen
B13 no binding seen
B14 no binding seen
B15 no binding seen
B16 no binding seen
B17 no binding seen
B18 no binding seen
B19 no binding seen
B20 no binding seen
B21 no binding seen
B22 no binding seen
B23 no binding seen
B24 no binding seen

A portion from the list above, as a working copy:
Apparent Kd, inactive:
B6 > 670 nM
B7 no binding seen
B8 no binding seen
B9 no binding seen
